# US10730848B2 (priority 2013, dated 2020)
# Some entries share one result that the patent states for a list of compounds.
# Test system: anthrax lethal toxin (LT)
# Assay type: cell-based
row,SMILES,"cell viability after washout without irradiation, on exposure to LT"
1,"Cc1cccc(C)c1NC(=O)N/N=C/c1ccc(N=[N+]=[N-])cc1F [Compound 3, N^1-(4-AZIDO-2-FLUOROBENZYLIDENE)-N^4-(2,6-DIMETHYLPHENYL)SEMICARBAZONE]",no cell viability
2,"Cc1cccc(C)c1NC(=O)N/N=C/c1ccc(N=[N+]=[N-])cc1 [Compound 4, N^1-(4-AZIDOBENZYLIDENE)-N^4-(2,6-DIMETHYLPHENYL)SEMICARBAZONE]",no cell viability
3,"Cc1cccc(C)c1NC(=O)N/N=C/c1c(F)c(F)c(N=[N+]=[N-])c(F)c1F [Compound 5, N^1-(4-AZIDO-2,3,5,6-TETRAFLUOROBENZYLIDENE)-N^4-(2,6-DIMETHYLPHENYL)SEMICARBAZONE]",no cell viability
